# Assay results taken from US20220089746A1 (INSTITUT NATIONAL DE LA RECHERCHE SCIENTIFIQUE, published 2022).
# Chains of the proteins cited; added tags and fusions are not shown.
# UniProt P47929: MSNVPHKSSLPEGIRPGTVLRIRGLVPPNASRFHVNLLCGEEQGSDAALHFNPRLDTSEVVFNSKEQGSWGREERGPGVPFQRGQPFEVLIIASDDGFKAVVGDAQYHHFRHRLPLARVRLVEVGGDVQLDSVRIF
# These are yes or no findings as the source states them, for the method shown. Some binding calls cover weakened binding; strength is not graded here.
# B1: Nanobody 219_A01 (VHH)
# VHH: EVQLQASGGGFVQPGGSLRLSCAASGGGYDWDAMGWFRQAPGKEREFVSAISSNNNGSRYYADSVKGRFTISRDNSKNTVYLQMNSLRAEDTATYYCAADQYWGQGTQVTVSS
# notes: 169 aa with the tag, so CDR3 has 3 residues
# Biological target: recombinant human galectin-7 (human, UniProt P47929 1-136)
# Experiment: ELISA of the selected nanobody clone on hGAL-7 with His-tagged MBP as control; y axis 'ELISA Ratio'; no concentration given
binder,measurement,value
B1,binding,binds
